Results: paper PMC13376213, “Systematic discovery of motif-based interactions of the auxiliary domains of USP family deubiquitinases” (Nature Communications, 2026)
These are yes or no findings as the source states them, for the method shown. Binding calls can cover weak binding; strength is not graded here.

Target: USP20 DUSP2 domain, tag cleaved (for FP) (human)
Assay: fluorescence polarisation; displacement: unlabeled peptide titrated into the domain (at two-fold the KD of the FITC-labeled peptide) with 10 nM FITC-labeled peptide; 50 mM phosphate buffer pH 7.4, DTT, room temperature; estimated KD; both purified

- binding: binds weakly
Binder: PYIPMDGEDFQLSPICPE (N-terminally acetylated, C-terminally amidated) [HIF2A peptide 531-548]
